The target in assay [1] is Hsp90α (human (endogenous in HEK293)) (UniProt P07900). In words: affinity purification with mass spectrometry; endogenous Hsp90α or Hsp90β immunoprecipitated (antibody overnight at 4 °C, Protein G agarose) from mitochondria of WT HEK293 cells; IgG IP as negative control; only MitoCarta 3.0 proteins analysed; n = 2 biological replicates; no protease treatment of mitochondria.

By UniProt entry, the sequences of proteins in these tests, tags left out. Residues count along the entry.
UniProt P08238: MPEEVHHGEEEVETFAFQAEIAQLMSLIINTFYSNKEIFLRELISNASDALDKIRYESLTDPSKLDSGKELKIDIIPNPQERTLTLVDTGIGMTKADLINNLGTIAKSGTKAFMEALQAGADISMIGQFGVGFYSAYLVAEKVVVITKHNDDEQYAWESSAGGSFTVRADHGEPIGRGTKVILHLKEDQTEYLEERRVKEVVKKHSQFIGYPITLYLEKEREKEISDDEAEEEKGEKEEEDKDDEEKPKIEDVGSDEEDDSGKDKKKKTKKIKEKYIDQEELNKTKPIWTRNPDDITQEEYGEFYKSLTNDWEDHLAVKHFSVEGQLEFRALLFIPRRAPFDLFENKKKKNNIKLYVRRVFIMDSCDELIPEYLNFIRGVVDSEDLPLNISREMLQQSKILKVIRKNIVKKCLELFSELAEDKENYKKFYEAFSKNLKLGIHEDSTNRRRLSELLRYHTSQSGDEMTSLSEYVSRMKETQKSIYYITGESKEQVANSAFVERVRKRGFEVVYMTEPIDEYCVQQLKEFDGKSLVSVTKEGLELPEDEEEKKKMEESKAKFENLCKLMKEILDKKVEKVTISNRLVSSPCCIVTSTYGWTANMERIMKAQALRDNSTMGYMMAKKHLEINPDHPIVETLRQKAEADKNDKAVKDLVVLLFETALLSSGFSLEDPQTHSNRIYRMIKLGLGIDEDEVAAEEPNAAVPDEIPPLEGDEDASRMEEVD
UniProt Q02127: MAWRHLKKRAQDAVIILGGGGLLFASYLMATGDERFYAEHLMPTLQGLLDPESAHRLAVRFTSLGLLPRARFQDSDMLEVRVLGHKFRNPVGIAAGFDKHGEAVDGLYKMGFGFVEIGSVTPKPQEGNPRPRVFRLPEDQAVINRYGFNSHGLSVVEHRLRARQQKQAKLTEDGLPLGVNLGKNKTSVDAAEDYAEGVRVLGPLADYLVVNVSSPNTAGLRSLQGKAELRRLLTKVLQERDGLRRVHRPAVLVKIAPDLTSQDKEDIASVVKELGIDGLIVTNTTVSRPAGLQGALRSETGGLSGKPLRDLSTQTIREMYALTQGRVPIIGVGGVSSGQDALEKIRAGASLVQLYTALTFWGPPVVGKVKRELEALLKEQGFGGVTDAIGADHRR
UniProt P40939, residues 37-763: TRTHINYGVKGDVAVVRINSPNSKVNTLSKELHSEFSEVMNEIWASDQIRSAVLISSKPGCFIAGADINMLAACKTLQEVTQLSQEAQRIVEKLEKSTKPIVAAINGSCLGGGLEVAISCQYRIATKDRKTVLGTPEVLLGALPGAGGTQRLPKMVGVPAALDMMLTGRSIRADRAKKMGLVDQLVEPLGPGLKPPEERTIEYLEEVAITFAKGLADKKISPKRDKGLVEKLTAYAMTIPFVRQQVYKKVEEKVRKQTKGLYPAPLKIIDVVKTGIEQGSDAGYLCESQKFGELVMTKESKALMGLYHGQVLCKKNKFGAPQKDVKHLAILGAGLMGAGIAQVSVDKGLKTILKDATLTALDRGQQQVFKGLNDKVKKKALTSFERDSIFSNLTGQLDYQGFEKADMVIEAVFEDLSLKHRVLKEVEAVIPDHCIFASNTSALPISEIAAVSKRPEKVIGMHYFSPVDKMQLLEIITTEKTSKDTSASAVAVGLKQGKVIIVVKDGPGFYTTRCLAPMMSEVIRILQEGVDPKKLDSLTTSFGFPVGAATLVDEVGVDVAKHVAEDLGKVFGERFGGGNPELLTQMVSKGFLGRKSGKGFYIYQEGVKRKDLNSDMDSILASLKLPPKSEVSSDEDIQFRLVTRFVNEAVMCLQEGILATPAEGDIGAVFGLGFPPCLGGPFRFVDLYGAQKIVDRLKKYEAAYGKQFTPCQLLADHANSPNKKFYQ

Assay [2] deals with Hsp90β (human (endogenous in HEK293)) (UniProt P08238). Described as above.
Assay [3] has as its target Hsp90α (human (endogenous in HEK293)) (UniProt P07900). Kind of assay: affinity purification with mass spectrometry; endogenous Hsp90α or Hsp90β immunoprecipitated from mitochondria of WT and TRAP1 KO HEK293 cells, interactors compared; IgG IP as negative control; n = 3 biological replicates.
Assay [4] deals with T1, tumor necrosis factor receptor-associated protein 1 (TRAP1) (human (endogenous in HEK293)) (UniProt Q12931).
T1 sequence: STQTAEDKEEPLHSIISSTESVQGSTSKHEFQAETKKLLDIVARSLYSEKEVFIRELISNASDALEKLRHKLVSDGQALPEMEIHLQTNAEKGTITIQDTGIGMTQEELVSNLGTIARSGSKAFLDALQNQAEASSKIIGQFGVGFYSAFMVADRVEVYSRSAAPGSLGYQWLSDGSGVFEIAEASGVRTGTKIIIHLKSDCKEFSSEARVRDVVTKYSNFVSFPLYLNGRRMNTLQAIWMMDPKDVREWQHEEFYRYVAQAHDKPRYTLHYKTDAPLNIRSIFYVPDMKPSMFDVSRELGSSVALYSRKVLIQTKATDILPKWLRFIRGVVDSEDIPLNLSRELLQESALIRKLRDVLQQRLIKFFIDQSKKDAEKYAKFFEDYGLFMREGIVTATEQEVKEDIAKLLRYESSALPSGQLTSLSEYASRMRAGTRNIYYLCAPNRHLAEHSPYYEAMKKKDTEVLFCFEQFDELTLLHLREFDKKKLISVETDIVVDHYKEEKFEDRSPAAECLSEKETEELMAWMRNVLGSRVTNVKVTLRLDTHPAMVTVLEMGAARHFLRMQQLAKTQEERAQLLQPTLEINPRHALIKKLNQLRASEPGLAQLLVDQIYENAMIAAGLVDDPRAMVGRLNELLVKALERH
In words: affinity purification with mass spectrometry; endogenous TRAP1 immunoprecipitated from WT, Hsp90α KO and Hsp90β KO HEK293 cells, interactors compared; IgG IP as negative control.

These are yes or no findings as the source states them, for the method shown. In cells and extracts the contact can be indirect. A yes stands for co-enrichment or nearness to the bait. Other partners may have been found. For some of these results: No binding means not detected with the bait.

For the molecule NDUFB1 (from UniProt O75438 1-58), the binding entry in assay [1] is recorded as “no binding”; in assay [2], “binds”.
In the same order, the values of NDUFA7 (from UniProt O95182 1-113) are “no binding” and “binds”.
As for “DHODH (from UniProt Q02127 1-395) (enzyme)”, the binding entry in assay [3] is “binds”.
“hydroxyacyl-CoA dehydrogenase, α-subunit (HADHA) (from UniProt P40939 37-763)”: the binding entry in assay [1] and in assay [2] was “binds” each time.

B1: aldehyde dehydrogenase 1A1 (ALDH1A1) (enzyme, UniProt P00352 1-501)
chain: MSSSGTPDLPVLLTDLKIQYTKIFINNEWHDSVSGKKFPVFNPATEEELCQVEEGDKEDVDKAVKAARQAFQIGSPWRTMDASERGRLLYKLADLIERDRLLLATMESMNGGKLYSNAYLNDLAGCIKTLRYCAGWADKIQGRTIPIDGNFFTYTRHEPIGVCGQIIPWNFPLVMLIWKIGPALSCGNTVVVKPAEQTPLTALHVASLIKEAGFPPGVVNIVPGYGPTAGAAISSHMDIDKVAFTGSTEVGKLIKEAAGKSNLKRVTLELGGKSPCIVLADADLDNAVEFAHHGVFYHQGQCCIAASRIFVEESIYDEFVRRSVERAKKYILGNPLTPGVTQGPQIDKEQYDKILDLIESGKKEGAKLECGGGPWGNKGYFVQPTVFSNVTDEMRIAKEEIFGPVQQIMKFKSLDDVIKRANNTFYGLSAGVFTKDIDKAITISSALQAGTVWVNCYGVVSAQCPFGGFKMSGNGRELGEYGFHEYTEVKTVTVKISQKNS
Regarding B1, the binding result in assay [1] and in assay [2] was “no binding” throughout.

B2: COX20 (protein, UniProt Q5RI15 1-118)
chain: MAAPPEPGEPEERKSLKLLGFLDVENTPCARHSILYGSLGSVVAGFGHFLFTSRIRRSCDVGVGGFILVTLGCWFHCRYNYAKQRIQERIAREEIKKKILYEGTHLDPERKHNGSSSN
For the molecule B2, the binding result in assay [1] is listed as “no binding”; in assay [2], “binds”.

B3: GOT2, the mitochondrial isoform of glutamic-oxaloacetic transaminase (enzyme, UniProt P00505 30-430)
chain: SSWWTHVEMGPPDPILGVTEAFKRDTNSKKMNLGVGAYRDDNGKPYVLPSVRKAEAQIAAKNLDKEYLPIGGLAEFCKASAELALGENSEVLKSGRFVTVQTISGTGALRIGASFLQRFFKFSRDVFLPKPTWGNHTPIFRDAGMQLQGYRYYDPKTCGFDFTGAVEDISKIPEQSVLLLHACAHNPTGVDPRPEQWKEIATVVKKRNLFAFFDMAYQGFASGDGDKDAWAVRHFIEQGINVCLCQSYAKNMGLYGERVGAFTMVCKDADEAKRVESQLKILIRPMYSNPPLNGARIAAAILNTPDLRKQWLQEVKVMADRIIGMRTQLVSNLKKEGSTHNWQHITDQIGMFCFTGLKPEQVERLIKEFSIYMTKDGRISVAGVTSSNVGYLAHAIHQVTK
Consider B3, for which, in assay [4], the binding result was “binds”.

B4: COQ7 (protein, UniProt Q99807 36-217)
chain: SSGMTLDNISRAAVDRIIRVDHAGEYGANRIYAGQMAVLGRTSVGPVIQKMWDQEKDHLKKFNELMVTFRVRPTVLMPLWNVLGFALGAGTALLGKEGAMACTVAVEESIAHHYNNQIRTLMEEDPEKYEELLQLIKKFRDEELEHHDIGLDHDAELAPAYAVLKSIIQAGCRVAIYLSERL
Take B4: the figures for the binding entry in assay [1] and in assay [2] were “no binding” and “binds”, respectively.

B5: NDUFAF5 (protein, UniProt Q5TEU4 37-345)
chain: GSTSPRTLNIFDRDLKRKQKNWAARQPEPTKFDYLKEEVGSRIADRVYDIPRNFPLALDLGCGRGYIAQYLNKETIGKFFQADIAENALKNSSETEIPTVSVLADEEFLPFKENTFDLVVSSLSLHWVNDLPRALEQIHYILKPDGVFIGAMFGGDTLYELRCSLQLAETEREGGFSPHISPFTAVNDLGHLLGRAGFNTLTVDTDEIQVNYPGMFELMEDLQGMGESNCAWNRKALLHRDTMLAAAAVYREMYRNEDGSVPATYQIYYMIGWKYHESQARPAERGSATVSFGELGKINNLMPPGKKSQ
On to B5, for which the binding result in assay [1] was “no binding”; in assay [2], “binds”.

B6: ATP5IF1 (protein, UniProt Q9UII2 26-106)
chain: GSDQSENVDRGAGSIREAGGAFGKREQAEEERYFRAQSREQLAALKKHHEEEIVHHKKEIERLQKEIERHKQKIKMLKHDD
Turning to B6, the binding entry in assay [1] was “no binding”; in assay [2], “binds”.

B7: LYRM7 (protein, UniProt Q5U5X0 1-104)
chain: MGRAVKVLQLFKTLHRTRQQVFKNDARALEAARIKINEEFKNNKSETSSKKIEELMKIGSDVELLLRTSVIQGIHTDHNTLKLVPRKDLLVENVPYCDAPTQKQ
On to B7, for which the binding result is “no binding” in assay [1] and “binds” in assay [2].

B8: SDHD (protein, UniProt O14521 57-159)
chain: SGSKAASLHWTSERVVSVLLLGLLPAAYLNPCSAMDYSLAAALTLHGHWGLGQVVTDYVHGDALQKAAKAGLLALSALTFAGLCYFNYHDVGICKAVAMLWKL
In the case of B8, the results for the binding result in assay [1] and in assay [2] were “no binding” and “binds”, respectively.

Source of the values: article PMC13586520.
